Where a chain is given by its changes, count along the chain named. These are yes or no findings as the source states them, for the method shown. Binding seen in cells or lysates may run through a third protein. Some binding calls cover weakened binding; strength is not graded here. For some of these results: Sequences can lack the tags named with a protein.
Legend:
Assay in all cases: co-IP; 293FT cells transfected with the indicated plasmids (Girdin NT or CT domain; Flag-NT wild type or mutants), co-IP from lysate in IP lysis buffer, western blot
[1] = target: T1, Flag-tagged Girdin NT domain S233A (human) (UniProt Q3V6T2)
T1 sequence: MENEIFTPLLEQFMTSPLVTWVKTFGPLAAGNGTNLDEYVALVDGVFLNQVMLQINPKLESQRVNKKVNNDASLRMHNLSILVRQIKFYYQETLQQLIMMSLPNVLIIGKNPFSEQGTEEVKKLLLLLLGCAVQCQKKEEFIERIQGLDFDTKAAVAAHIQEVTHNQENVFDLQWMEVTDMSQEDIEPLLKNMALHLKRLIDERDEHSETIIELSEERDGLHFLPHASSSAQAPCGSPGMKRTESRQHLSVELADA

[2] = target: T2, Flag-tagged Girdin NT domain S233A/S237A (AA) (human) (UniProt Q3V6T2)
T2 sequence: T1 sequence with S237A

[3] = target: T3, Flag-tagged Girdin NT domain S237A (human) (UniProt Q3V6T2)
T3 sequence: T1 sequence with A233S, S237A

[4] = target: T4, Girdin amino terminal (NT) domain, expressed in 293FT cells for domain mapping (Fig 1E) (human) (UniProt Q3V6T2)
T4 sequence: T1 sequence with A233S

With “4F2hc in lysates of 293FT cells transfected with Girdin domain plasmids (Fig 1E, Fig 2F) (from UniProt P08195 1-529)” the binding [1] was “no binding”, the binding [2] was “no binding” and the binding [3] was “no binding”. For the same substance, the binding [4] was “binds”.
